The results in this text go back to publication PMC5966378.

Amino acid sequences for entries named in this document (tags omitted).
UniProt P0A6Y8: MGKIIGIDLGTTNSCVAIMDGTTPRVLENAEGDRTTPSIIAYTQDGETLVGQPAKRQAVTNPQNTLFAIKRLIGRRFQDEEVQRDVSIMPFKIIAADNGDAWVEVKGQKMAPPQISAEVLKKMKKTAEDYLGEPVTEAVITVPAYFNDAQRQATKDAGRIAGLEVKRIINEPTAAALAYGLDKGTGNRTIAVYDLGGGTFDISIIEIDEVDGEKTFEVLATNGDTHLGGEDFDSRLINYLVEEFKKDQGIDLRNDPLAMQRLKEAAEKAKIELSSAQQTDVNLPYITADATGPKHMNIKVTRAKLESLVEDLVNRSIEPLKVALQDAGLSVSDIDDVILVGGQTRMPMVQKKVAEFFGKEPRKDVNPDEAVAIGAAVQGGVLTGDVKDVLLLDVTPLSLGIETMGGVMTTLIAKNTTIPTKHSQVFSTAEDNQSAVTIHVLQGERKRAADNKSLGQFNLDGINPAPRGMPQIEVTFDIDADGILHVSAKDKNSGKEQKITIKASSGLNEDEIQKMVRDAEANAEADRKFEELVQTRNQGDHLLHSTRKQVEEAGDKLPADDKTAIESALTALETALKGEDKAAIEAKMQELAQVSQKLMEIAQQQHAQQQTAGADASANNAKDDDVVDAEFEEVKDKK
UniProt P08622: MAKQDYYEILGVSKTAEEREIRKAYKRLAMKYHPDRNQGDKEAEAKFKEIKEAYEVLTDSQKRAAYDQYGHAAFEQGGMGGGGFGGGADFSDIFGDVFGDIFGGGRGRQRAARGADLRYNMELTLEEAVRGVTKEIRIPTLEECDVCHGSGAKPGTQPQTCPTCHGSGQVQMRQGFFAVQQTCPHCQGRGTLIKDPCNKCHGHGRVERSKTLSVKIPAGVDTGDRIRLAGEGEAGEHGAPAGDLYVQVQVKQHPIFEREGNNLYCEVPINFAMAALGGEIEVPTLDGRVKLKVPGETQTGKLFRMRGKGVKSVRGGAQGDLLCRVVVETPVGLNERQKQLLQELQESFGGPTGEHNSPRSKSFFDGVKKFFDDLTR

The target of the experiment is DnaK, purified (StressGen) (UniProt P0A6Y8). Put plainly: native gel or EMSA; both purified. For orientation: A gel shift assay detects complexes by their altered migration in electrophoresis.

No constants are given. Whether binding was seen depends on the method and setting. Some results given as binding are weak or reduced against the parent protein; the word gives no strength.

As for “DnaJ, purified (StressGen) (from UniProt P08622 1-376)”, the binding result is recorded as “binds”.
